# Assay results: patent publication US20120034613A1, “Apparatus and Method for Testing Relationships Between Gene Expression and Physical Appearance of Skin” (NSE Products, Inc., priority 2010, published 2012)
# This continues a long series; more values of the same kind are listed elsewhere.
# System: EpidermFT™ Skin Model (EFT-400) full thickness skin cultures
# Assay: Affymetrix GeneChip HG U133 Plus 2.0 microarray global gene expression, agent-exposed vs untreated skin cultures
# Format: cell-based, human
# [1] = 218772_x_at TMEM38B, Salicin 0.5%, 24 hr
# [2] = 219374_s_at ALG9, Salicin 0.5%, 24 hr
# [3] = 219390_at FKBP14, Salicin 0.5%, 24 hr
# [4] = 219500_at CLCF1, Salicin 0.5%, 24 hr
# [5] = 219631_at LRP12, Salicin 0.5%, 24 hr
# [6] = 219682_s_at TBX3, Salicin 0.5%, 24 hr
# [7] = 219910_at FICD, Salicin 0.5%, 24 hr
# [8] = 219985_at HS3ST3A1, Salicin 0.5%, 24 hr
# [9] = 220092_s_at ANTXR1, Salicin 0.5%, 24 hr
# [10] = 220254_at LRP12, Salicin 0.5%, 24 hr
# [11] = 220301_at CCDC102B, Salicin 0.5%, 24 hr
# [12] = 220745_at IL19, Salicin 0.5%, 24 hr
# [13] = 220980_s_at ADPGK, Salicin 0.5%, 24 hr
# [14] = 221059_s_at COTL1, Salicin 0.5%, 24 hr
# [15] = 221918_at PCTK2, Salicin 0.5%, 24 hr
# [16] = 221958_s_at GPR177, Salicin 0.5%, 24 hr
# [17] = 221978_at HLA-F, Salicin 0.5%, 24 hr
# [18] = 222619_at ZNF281, Salicin 0.5%, 24 hr
# [19] = 222731_at ZDHHC2, Salicin 0.5%, 24 hr
# [20] = 222802_at EDN1, Salicin 0.5%, 24 hr
# [21] = 223222_at SLC25A19, Salicin 0.5%, 24 hr
# [22] = 223296_at SLC25A33, Salicin 0.5%, 24 hr
# [23] = 223315_at NTN4, Salicin 0.5%, 24 hr
# [24] = 223463_at RAB23, Salicin 0.5%, 24 hr
# [25] = 223866_at ARMC2, Salicin 0.5%, 24 hr
# [26] = 224455_s_at ADPGK, Salicin 0.5%, 24 hr
# [27] = 224523_s_at C3orf26, Salicin 0.5%, 24 hr
# [28] = 224826_at RP5-1022P6.2, Salicin 0.5%, 24 hr
# [29] = 225174_at DNAJC10, Salicin 0.5%, 24 hr
# [30] = 225589_at SH3RF1, Salicin 0.5%, 24 hr
# [31] = 226001_at KLHL5, Salicin 0.5%, 24 hr
# [32] = 226337_at SCYL1BP1, Salicin 0.5%, 24 hr
# [33] = 226890_at WDR35, Salicin 0.5%, 24 hr
# [34] = 227027_at GFPT1, Salicin 0.5%, 24 hr
# [35] = 227220_at NFXL1, Salicin 0.5%, 24 hr
# [36] = 227294_at ZNF689, Salicin 0.5%, 24 hr
# [37] = 227351_at C16orf52, Salicin 0.5%, 24 hr
# [38] = 227445_at ZNF689, Salicin 0.5%, 24 hr
# [39] = 227621_at WTAP, Salicin 0.5%, 24 hr
# [40] = 227658_s_at PLEKHA3, Salicin 0.5%, 24 hr
# [41] = 227660_at ANTXR1, Salicin 0.5%, 24 hr
# [42] = 228368_at ARHGAP20, Salicin 0.5%, 24 hr
# [43] = 228423_at MAP9, Salicin 0.5%, 24 hr
# [44] = 228653_at SAMD5, Salicin 0.5%, 24 hr
# [45] = 228986_at OSBPL8, Salicin 0.5%, 24 hr
# [46] = 229271_x_at COL11A1, Salicin 0.5%, 24 hr
# [47] = 229287_at PCNX, Salicin 0.5%, 24 hr
# [48] = 229404_at TWIST2, Salicin 0.5%, 24 hr
# [49] = 229555_at GALNT5, Salicin 0.5%, 24 hr
# [50] = 229588_at DNAJC10, Salicin 0.5%, 24 hr
# [51] = 229868_s_at GDF15, Salicin 0.5%, 24 hr
# [52] = 229942_at BNC2, Salicin 0.5%, 24 hr
# [53] = 230031_at HSPA5, Salicin 0.5%, 24 hr
# [54] = 230123_at NECAP2, Salicin 0.5%, 24 hr
# [55] = 230207_s_at DOCK5, Salicin 0.5%, 24 hr
# [56] = 231824_at LARP2, Salicin 0.5%, 24 hr
# [57] = 235061_at PPM1K, Salicin 0.5%, 24 hr
# [58] = 235236_at LOC100131897, Salicin 0.5%, 24 hr
# [59] = 235338_s_at SETDB2, Salicin 0.5%, 24 hr
# [60] = 235359_at LRRC33, Salicin 0.5%, 24 hr
# [61] = 235391_at FAM92A1, Salicin 0.5%, 24 hr
# [62] = 235550_at MAP9, Salicin 0.5%, 24 hr
# [63] = 235706_at CPM, Salicin 0.5%, 24 hr
# [64] = 236129_at GALNT5, Salicin 0.5%, 24 hr
# [65] = 238417_at PGM2L1, Salicin 0.5%, 24 hr
# [66] = 238497_at TMEM136, Salicin 0.5%, 24 hr
# [67] = 238669_at PTGS1, Salicin 0.5%, 24 hr
# [68] = 238877_at EYA4, Salicin 0.5%, 24 hr
# [69] = 239261_s_at CORIN, Salicin 0.5%, 24 hr
# [70] = 239286_at CDH11, Salicin 0.5%, 24 hr
# [71] = 239468_at MKX, Salicin 0.5%, 24 hr
# [72] = 240728_at PLCB4, Salicin 0.5%, 24 hr
# [73] = 241372_at ZC3H6, Salicin 0.5%, 24 hr
# [74] = 242281_at GLUL, Salicin 0.5%, 24 hr
# [75] = 244246_at MIPOL1, Salicin 0.5%, 24 hr
# [76] = 244808_at GRAMD1A, Salicin 0.5%, 24 hr
# [77] = 244852_at DSEL, Salicin 0.5%, 24 hr
# [78] = 1552309_a_at NEXN, Salicin 0.5%, 24 hr
# [79] = 1554036_at ZBTB24, Salicin 0.5%, 24 hr
# [80] = 1554140_at WDR78, Salicin 0.5%, 24 hr
# [81] = 1554414_a_at OSGIN2, Salicin 0.5%, 24 hr
# [82] = 1554474_a_at MOXD1, Salicin 0.5%, 24 hr
# [83] = 1555279_at ARMC8, Salicin 0.5%, 24 hr
# [84] = 1555724_s_at TAGLN, Salicin 0.5%, 24 hr
# [85] = 1556113_at DKFZp451A211, Salicin 0.5%, 24 hr
# [86] = 1559060_a_at FNIP1, Salicin 0.5%, 24 hr
# [87] = 1559582_at RHOQ, Salicin 0.5%, 24 hr
# [88] = 1560007_at LOC645984, Salicin 0.5%, 24 hr
# [89] = 1570515_a_at FILIP1, Salicin 0.5%, 24 hr
structure (smiles),measurement,setting,value
"OCc1ccccc1O[C@@H]1O[C@H](CO)[C@@H](O)[C@H](O)[C@H]1O [Salicin, 2-(Hydroxymethyl)phenyl β-D-glucospyranoside]",Fold change,"218541_s_at C8orf4, Salicin 0.5%, 24 hr",2.239
same,Direction,[1],up
same,Fold change,[1],2.296
same,Direction,[2],up
same,Fold change,[2],2.062
same,Direction,[3],up
same,Fold change,[3],2.241
same,Direction,[4],up
same,Fold change,[4],2.165
same,Direction,[5],up
same,Fold change,[5],2.181
same,Direction,[6],up
same,Fold change,[6],2.052
same,Direction,[7],up
same,Fold change,[7],2.221
same,Direction,[8],up
same,Fold change,[8],2.209
same,Direction,[9],up
same,Fold change,[9],2.229
same,Direction,[10],up
same,Fold change,[10],2.223
same,Direction,[11],up
same,Fold change,[11],2.17
same,Direction,[12],up
same,Fold change,[12],2.278
same,Direction,[13],up
same,Fold change,[13],2.057
same,Direction,[14],up
same,Fold change,[14],2.064
same,Direction,[15],up
same,Fold change,[15],2.268
same,Direction,[16],up
same,Fold change,[16],2.21
same,Direction,[17],up
same,Fold change,[17],2.208
same,Direction,[18],up
same,Fold change,[18],2.223
same,Direction,[19],up
same,Fold change,[19],2.053
same,Direction,[20],up
same,Fold change,[20],2.26
same,Direction,[21],up
same,Fold change,[21],2.243
same,Direction,[22],up
same,Fold change,[22],2.176
same,Direction,[23],up
same,Fold change,[23],2.241
same,Direction,[24],up
same,Fold change,[24],2.249
same,Direction,[25],up
same,Fold change,[25],2.208
same,Direction,[26],up
same,Fold change,[26],2.259
same,Direction,[27],up
same,Fold change,[27],2.235
same,Direction,[28],up
same,Fold change,[28],2.298
same,Direction,[29],up
same,Fold change,[29],2.203
same,Direction,[30],up
same,Fold change,[30],2.254
same,Direction,[31],up
same,Fold change,[31],2.175
same,Direction,[32],up
same,Fold change,[32],2.211
same,Direction,[33],up
same,Fold change,[33],2.236
same,Direction,[34],up
same,Fold change,[34],2.067
same,Direction,[35],up
same,Fold change,[35],2.19
same,Direction,[36],up
same,Fold change,[36],2.176
same,Direction,[37],up
same,Fold change,[37],2.221
same,Direction,[38],up
same,Fold change,[38],2.243
same,Direction,[39],up
same,Fold change,[39],2.282
same,Direction,[40],up
same,Fold change,[40],2.065
same,Direction,[41],up
same,Fold change,[41],2.179
same,Direction,[42],up
same,Fold change,[42],2.259
same,Direction,[43],up
same,Fold change,[43],2.27
same,Direction,[44],up
same,Fold change,[44],2.259
same,Direction,[45],up
same,Fold change,[45],2.226
same,Direction,[46],up
same,Fold change,[46],2.182
same,Direction,[47],up
same,Fold change,[47],2.071
same,Direction,[48],up
same,Fold change,[48],2.072
same,Direction,[49],up
same,Fold change,[49],2.296
same,Direction,[50],up
same,Fold change,[50],2.229
same,Direction,[51],up
same,Fold change,[51],2.205
same,Direction,[52],up
same,Fold change,[52],2.062
same,Direction,[53],up
same,Fold change,[53],2.204
same,Direction,[54],up
same,Fold change,[54],2.23
same,Direction,[55],up
same,Fold change,[55],2.279
same,Direction,[56],up
same,Fold change,[56],2.044
same,Direction,[57],up
same,Fold change,[57],2.042
same,Direction,[58],up
same,Fold change,[58],2.285
same,Direction,[59],up
same,Fold change,[59],2.277
same,Direction,[60],up
same,Fold change,[60],2.045
same,Direction,[61],up
same,Fold change,[61],2.054
same,Direction,[62],up
same,Fold change,[62],2.202
same,Direction,[63],up
same,Fold change,[63],2.202
same,Direction,[64],up
same,Fold change,[64],2.184
same,Direction,[65],up
same,Fold change,[65],2.044
same,Direction,[66],up
same,Fold change,[66],2.168
same,Direction,[67],up
same,Fold change,[67],2.194
same,Direction,[68],up
same,Fold change,[68],2.267
same,Direction,[69],up
same,Fold change,[69],2.044
same,Direction,[70],up
same,Fold change,[70],2.204
same,Direction,[71],up
same,Fold change,[71],2.167
same,Direction,[72],up
same,Fold change,[72],2.207
same,Direction,[73],up
same,Fold change,[73],2.296
same,Direction,[74],up
same,Fold change,[74],2.061
same,Direction,[75],up
same,Fold change,[75],2.046
same,Direction,[76],up
same,Fold change,[76],2.261
same,Direction,[77],up
same,Fold change,[77],2.251
same,Direction,[78],up
same,Fold change,[78],2.177
same,Direction,[79],up
same,Fold change,[79],2.197
same,Direction,[80],up
same,Fold change,[80],2.159
same,Direction,[81],up
same,Fold change,[81],2.205
same,Direction,[82],up
same,Fold change,[82],2.165
same,Direction,[83],up
same,Fold change,[83],2.291
same,Direction,[84],up
same,Fold change,[84],2.184
same,Direction,[85],up
same,Fold change,[85],2.252
same,Direction,[86],up
same,Fold change,[86],2.284
same,Direction,[87],up
same,Fold change,[87],2.293
same,Direction,[88],up
same,Fold change,[88],2.286
same,Direction,[89],up
same,Fold change,[89],2.258
same,Direction,"direction of regulation (up/down) of the probe set / gene named in the row, Salicin 0.5% vs Untreated Control, 24 hr treatment",down
